# The name of at least one read-out is uncertain.
# Test system: IL-2
# Assay: IL-2 secretion by white blood cells/PBMC stimulated with phorbol 12-myristate 13-acetate and ionomycin (PI), ELISA
# Conditions: fluvoxamine alone; concentration (μM), 63 to 0.031
compound,measurement,value
COCCCC/C(=N\OCCN)c1ccc(C(F)(F)F)cc1 [Fluvoxamine],"percent inhibition of cytokine secretion, IL-2",0%

# From patent US20050153947A1, “Methods and reagents for the treatment of diseases and disorders associated with increased levels of proinflammatory cytokines” (priority 2002, published 2005)
